# Results reported in the supplement of paper PMC12067093, “Discovery and optimisation of a covalent ligand for TRIM25 and its application to targeted protein ubiquitination” (Chemical Science, 2025).
# Chains of the proteins cited; added tags and fusions are not shown. Lines headed by an entry give the natural chain unless they say otherwise; changes in a name come on top.
# UniProt Q9Y4A5, whole entry, looked up: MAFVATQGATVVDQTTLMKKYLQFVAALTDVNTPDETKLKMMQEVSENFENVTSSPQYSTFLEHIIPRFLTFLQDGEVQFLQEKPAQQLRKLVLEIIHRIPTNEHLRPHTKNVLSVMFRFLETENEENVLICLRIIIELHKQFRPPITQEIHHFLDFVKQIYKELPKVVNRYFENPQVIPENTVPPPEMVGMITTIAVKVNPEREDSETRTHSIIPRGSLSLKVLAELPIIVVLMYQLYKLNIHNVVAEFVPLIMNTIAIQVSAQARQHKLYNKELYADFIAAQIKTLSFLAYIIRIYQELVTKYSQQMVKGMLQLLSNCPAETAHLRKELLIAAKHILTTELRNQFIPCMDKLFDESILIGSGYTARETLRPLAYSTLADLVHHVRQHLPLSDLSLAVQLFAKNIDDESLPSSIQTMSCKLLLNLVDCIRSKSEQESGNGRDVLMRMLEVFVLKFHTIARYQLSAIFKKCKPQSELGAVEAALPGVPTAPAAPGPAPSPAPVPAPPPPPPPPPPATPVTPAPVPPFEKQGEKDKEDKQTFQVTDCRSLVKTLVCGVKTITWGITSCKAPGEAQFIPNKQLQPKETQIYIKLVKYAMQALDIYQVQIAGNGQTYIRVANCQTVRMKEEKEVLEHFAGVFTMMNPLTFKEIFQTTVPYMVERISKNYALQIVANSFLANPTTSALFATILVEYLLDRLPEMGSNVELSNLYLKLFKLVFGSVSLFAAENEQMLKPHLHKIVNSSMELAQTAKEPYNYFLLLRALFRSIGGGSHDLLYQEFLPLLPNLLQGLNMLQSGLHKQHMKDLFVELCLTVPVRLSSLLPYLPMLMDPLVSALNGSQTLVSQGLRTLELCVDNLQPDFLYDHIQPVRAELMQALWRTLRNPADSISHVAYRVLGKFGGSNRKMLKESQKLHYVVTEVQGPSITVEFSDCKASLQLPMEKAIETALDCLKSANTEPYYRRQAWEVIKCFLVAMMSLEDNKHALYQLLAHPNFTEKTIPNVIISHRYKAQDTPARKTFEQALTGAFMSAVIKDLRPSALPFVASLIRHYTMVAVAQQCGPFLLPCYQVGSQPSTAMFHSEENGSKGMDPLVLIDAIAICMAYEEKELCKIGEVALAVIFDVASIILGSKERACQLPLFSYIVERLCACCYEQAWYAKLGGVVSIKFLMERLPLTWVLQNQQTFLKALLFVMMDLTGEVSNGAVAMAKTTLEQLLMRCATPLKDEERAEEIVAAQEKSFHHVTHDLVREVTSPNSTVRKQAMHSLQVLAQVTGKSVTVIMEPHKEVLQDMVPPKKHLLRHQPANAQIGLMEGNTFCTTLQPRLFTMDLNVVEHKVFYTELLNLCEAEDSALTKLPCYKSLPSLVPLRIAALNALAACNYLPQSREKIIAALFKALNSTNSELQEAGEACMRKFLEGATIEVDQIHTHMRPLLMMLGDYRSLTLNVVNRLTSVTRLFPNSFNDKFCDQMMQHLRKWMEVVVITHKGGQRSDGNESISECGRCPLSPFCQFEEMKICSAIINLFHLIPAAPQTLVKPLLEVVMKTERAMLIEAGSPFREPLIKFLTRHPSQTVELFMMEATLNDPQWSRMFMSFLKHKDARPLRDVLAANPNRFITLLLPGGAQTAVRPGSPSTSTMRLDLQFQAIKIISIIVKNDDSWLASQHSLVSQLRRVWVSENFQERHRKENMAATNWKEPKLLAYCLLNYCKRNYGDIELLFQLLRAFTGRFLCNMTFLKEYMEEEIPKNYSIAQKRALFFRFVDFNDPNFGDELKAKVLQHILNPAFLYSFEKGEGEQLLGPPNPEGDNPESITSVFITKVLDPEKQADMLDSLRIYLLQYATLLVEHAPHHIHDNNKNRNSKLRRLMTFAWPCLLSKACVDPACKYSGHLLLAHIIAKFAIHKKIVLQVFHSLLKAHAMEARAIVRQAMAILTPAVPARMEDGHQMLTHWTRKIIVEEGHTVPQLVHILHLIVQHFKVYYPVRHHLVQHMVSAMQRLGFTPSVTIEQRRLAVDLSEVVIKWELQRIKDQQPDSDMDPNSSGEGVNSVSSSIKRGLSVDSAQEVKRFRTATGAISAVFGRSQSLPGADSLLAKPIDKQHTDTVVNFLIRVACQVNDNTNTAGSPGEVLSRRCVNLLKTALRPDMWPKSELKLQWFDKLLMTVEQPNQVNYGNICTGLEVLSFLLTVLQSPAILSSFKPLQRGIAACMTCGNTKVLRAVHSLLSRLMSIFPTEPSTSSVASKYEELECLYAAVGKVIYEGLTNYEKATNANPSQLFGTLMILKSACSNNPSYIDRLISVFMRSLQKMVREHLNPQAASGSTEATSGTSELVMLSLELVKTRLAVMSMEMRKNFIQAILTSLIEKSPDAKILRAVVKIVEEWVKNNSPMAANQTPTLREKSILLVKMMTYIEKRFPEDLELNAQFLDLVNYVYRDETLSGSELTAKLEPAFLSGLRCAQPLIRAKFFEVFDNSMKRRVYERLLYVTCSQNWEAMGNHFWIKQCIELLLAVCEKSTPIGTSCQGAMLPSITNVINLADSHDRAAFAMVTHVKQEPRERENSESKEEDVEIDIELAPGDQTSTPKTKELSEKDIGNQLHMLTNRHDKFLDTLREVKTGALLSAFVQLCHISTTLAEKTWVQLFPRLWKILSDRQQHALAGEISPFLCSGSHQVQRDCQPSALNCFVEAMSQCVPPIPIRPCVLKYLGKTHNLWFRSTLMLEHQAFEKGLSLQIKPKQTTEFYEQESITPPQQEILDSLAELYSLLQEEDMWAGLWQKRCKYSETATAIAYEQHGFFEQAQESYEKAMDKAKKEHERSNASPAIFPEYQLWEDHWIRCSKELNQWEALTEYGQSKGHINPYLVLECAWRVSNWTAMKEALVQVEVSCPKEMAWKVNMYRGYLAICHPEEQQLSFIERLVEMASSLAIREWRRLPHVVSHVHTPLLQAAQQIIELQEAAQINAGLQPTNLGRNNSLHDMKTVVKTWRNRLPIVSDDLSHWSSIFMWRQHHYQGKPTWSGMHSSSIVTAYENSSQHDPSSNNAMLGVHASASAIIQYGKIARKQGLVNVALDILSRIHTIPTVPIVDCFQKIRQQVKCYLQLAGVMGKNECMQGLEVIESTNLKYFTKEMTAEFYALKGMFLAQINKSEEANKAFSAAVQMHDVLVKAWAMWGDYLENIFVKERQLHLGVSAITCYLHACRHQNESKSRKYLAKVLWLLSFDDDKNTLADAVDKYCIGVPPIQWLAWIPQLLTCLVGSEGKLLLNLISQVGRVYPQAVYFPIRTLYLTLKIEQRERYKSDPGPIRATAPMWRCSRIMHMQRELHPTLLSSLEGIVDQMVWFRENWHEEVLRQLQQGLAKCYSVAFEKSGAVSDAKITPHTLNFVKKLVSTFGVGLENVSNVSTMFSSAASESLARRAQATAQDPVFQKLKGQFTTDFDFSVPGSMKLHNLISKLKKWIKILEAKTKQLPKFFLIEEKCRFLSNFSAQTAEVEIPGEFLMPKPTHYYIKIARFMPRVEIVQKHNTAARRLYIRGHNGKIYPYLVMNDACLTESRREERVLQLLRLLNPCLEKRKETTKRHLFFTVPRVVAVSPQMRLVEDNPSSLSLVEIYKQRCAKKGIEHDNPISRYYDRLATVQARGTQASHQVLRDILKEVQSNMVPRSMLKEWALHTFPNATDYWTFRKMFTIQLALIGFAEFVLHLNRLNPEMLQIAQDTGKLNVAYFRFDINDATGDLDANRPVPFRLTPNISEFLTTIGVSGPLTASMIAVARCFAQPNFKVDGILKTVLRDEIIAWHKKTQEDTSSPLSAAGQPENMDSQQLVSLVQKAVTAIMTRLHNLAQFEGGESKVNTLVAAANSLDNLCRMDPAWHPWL
# UniProt Q5TAX3: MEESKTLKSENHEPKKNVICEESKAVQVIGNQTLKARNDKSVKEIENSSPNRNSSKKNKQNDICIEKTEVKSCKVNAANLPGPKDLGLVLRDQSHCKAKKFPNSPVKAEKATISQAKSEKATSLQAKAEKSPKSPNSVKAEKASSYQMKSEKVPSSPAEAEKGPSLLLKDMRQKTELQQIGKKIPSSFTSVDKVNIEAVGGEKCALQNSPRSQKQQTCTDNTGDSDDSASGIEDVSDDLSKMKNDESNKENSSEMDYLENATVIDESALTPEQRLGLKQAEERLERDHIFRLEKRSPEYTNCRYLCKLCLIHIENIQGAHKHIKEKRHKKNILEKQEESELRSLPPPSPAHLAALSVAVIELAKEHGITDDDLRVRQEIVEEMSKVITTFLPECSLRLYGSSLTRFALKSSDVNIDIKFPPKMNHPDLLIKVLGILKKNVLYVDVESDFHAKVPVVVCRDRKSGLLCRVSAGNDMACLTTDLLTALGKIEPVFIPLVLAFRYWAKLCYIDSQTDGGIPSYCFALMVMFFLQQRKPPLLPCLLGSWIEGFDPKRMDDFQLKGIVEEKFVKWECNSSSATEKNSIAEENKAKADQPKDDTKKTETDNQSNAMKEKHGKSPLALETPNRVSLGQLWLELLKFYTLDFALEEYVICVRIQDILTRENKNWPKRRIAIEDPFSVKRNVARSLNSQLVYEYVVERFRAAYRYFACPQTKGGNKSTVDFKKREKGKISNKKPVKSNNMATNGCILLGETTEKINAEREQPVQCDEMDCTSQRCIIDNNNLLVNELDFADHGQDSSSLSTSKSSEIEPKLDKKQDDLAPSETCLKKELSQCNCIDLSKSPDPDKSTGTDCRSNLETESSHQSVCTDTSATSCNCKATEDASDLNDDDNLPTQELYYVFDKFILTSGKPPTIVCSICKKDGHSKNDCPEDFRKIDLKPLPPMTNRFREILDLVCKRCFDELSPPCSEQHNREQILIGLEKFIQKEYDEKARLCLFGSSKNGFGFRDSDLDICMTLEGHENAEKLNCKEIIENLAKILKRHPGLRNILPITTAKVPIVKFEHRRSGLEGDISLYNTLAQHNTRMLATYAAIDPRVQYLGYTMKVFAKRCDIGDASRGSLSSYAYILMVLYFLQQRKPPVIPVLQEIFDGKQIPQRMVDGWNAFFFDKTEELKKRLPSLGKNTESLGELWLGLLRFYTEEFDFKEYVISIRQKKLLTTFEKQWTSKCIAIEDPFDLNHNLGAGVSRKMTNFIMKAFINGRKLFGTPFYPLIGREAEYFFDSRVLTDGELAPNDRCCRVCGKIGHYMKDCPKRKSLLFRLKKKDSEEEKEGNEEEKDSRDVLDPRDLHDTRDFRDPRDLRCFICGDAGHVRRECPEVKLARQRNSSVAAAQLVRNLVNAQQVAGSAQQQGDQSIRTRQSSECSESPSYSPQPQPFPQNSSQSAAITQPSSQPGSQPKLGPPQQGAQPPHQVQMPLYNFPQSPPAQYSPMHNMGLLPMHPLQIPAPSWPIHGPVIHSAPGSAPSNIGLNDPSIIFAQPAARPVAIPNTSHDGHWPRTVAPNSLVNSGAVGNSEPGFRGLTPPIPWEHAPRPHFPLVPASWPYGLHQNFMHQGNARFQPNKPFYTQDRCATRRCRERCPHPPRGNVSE
# UniProt Q6NXR4: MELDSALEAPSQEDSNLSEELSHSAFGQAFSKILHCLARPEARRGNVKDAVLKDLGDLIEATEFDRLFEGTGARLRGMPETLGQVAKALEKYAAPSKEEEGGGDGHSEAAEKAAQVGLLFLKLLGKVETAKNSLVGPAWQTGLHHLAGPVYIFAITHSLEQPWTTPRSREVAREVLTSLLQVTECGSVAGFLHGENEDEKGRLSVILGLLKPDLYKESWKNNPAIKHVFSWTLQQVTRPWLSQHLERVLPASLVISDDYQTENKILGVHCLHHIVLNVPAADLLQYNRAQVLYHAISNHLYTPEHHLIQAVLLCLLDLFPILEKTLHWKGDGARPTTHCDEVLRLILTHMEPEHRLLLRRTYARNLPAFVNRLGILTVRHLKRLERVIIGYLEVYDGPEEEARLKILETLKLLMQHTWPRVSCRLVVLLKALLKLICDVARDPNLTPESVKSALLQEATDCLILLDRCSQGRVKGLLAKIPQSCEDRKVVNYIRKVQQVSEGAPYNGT
# UniProt Q16762: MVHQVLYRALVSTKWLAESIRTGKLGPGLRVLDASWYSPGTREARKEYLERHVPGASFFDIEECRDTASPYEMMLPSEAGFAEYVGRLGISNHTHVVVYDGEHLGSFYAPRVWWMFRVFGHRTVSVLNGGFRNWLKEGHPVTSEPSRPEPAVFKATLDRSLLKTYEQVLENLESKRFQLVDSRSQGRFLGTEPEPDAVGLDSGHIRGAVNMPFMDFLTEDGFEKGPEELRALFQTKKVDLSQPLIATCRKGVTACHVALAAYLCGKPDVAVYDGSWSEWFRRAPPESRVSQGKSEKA
# This is one part of the list.
# Compound: CC1Cc2ccccc2N1C(=O)C1CCCN(C1)C(=O)CCl (mixture of isomers) [TRIM25 ligand 11 (diastereomer mixture)]
# Experiment: probe-labelled cysteine peptide fold change vs DMSO (competition) (log2 fold change); higher = less target engagement (more negative = stronger competition)
# Conditions: THP-1, incubation time: 4 h
# 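Further: competitive chemoproteomic profiling in live THP-1 cells with an iodoacetamide desthiobiotin (IA-DTB) probe, comparing probe-labelled peptide intensities in compound-treated cells against DMSO-treated controls.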
Target,probe-labelled cysteine peptide fold change (10 µM),probe-labelled cysteine peptide fold change (50 µM)
TTC21B_Q7Z4L5_72_QDVSLCSLLALIYAHK (UniProt Q7Z4L5),0.155,0.138
TRRAP_Q9Y4A5_2876_EALVQVEVSCPK (UniProt Q9Y4A5),0.177,0.137
TUT4_Q5TAX3_825_KQDDLAPSETCLK (UniProt Q5TAX3),0.0258,-0.114
TTI2_Q6NXR4_461_SALLQEATDCLILLDR (UniProt Q6NXR4),-0.0974,-0.0477
TSTA3_Q13630_116_VVSCLSTCIFPDK (UniProt Q13630),0.0546,-0.122
TTF2_Q9UNY4_1118_FVCEGTVEEK (UniProt Q9UNY4),-0.132,-0.00382
TRMU_O75648_9_HVVCALSGGVDSAVAALLLR (UniProt O75648),-0.0365,0.169
TSC2_P49815_519_KLATQLLVDLAEGCHTHHFNSLLDIIEK (UniProt P49815),0.161,0.0119
TRMT2A_Q8IZ69_463_VIGVELCPEAVEDAR (UniProt Q8IZ69),0.0959,-0.244
TUBGCP2_Q9BSJ2_648_HMFYCK (UniProt Q9BSJ2),0.106,0.238
TRRAP_Q9Y4A5_1315_HQPANAQIGLMEGNTFCTTLQPR (UniProt Q9Y4A5),0.222,0.0269
TSC22D4_Q9Y3Q8_92_WTCVDVYERDLEPHSFGGLLEGIR (UniProt Q9Y3Q8),0.119,-0.12
TUT4_Q5TAX3_20_KNVICEESK (UniProt Q5TAX3),-0.0558,-0.326
TTF2_Q9UNY4_522_SACQVTAGGSSQCYR (UniProt Q9UNY4),0.174,-0.0617
TST_Q16762_64_HVPGASFFDIEECR (UniProt Q16762),0.135,0.353
TSFM_P43897_64_TGYSFVNCK (UniProt P43897),-0.111,0.0251
TTC7A_Q9ULT0_299_HLAGVLLHSLSEECYWSPLSHPLPEFMGK (UniProt Q9ULT0),0.103,0.21
TSR1_Q2NL82_329_DPDMAMEICATDAVDDMEEGLK (UniProt Q2NL82),-0.133,-0.224
TUBA1B_P68363_347_SIQFVDWCPTGFK (UniProt P68363),0.00658,-0.00159
TUBB6_Q9BUF5_124+127_ECEHCDCLQGFQLTHSLGGGTGSGMGTLLISK (UniProt Q9BUF5),0.115,0.112
TROVE2_P10155_400_VLGSILNASTVAAAMCMVVTR (UniProt P10155),-0.413,0.243

# Rewritten tab-delimited: part of the list above.
Target	probe-labelled cysteine peptide fold change (10 µM)	probe-labelled cysteine peptide fold change (50 µM)
TTF2_Q9UNY4_522_SACQVTAGGSSQCYR (UniProt Q9UNY4)	0.174	-0.0617
TUBB6_Q9BUF5_124+127_ECEHCDCLQGFQLTHSLGGGTGSGMGTLLISK (UniProt Q9BUF5)	0.115	0.112
